Experimental data: PubChem BioAssay AID1259424 (University of Nebraska Medical Center, 2018)
Test: 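Find knockdowns that reproduce the expression shifts seen after KSR1 loss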 (primary screen). Cells: human HCT116 colon cancer cells. Reagents: siRNA pool against human genes, 50 nM. Measured: 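Log2 levels of six mRNAs (branched-DNA multiplex), adjusted by two reference genes and the non-targeting median, then scored against the average KSR1 knockdown pattern as Pearson r and euclidean distance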. Reading the numbers: mean correlation with KSR1 profile: higher = expression change more like KSR1 knockdown.
The whole screen tested about 14,000 reagents; this is an unselected part. 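Higher correlation or smaller distance means closer resemblance to KSR1 loss; control wells, including KSR1 knockdowns, recur on many plates.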 Further read-outs or replicates are left out here. Not given: the time to read-out.

The opening 2 records, ahead of the listing:
SALL2 (spalt like transcription factor 2) [SID363996313] → mean correlation with KSR1 profile = -0.37
ZFP36 (ZFP36 zinc finger CCCH-type) [SID363994515] → mean correlation with KSR1 profile = -0.367

The list itself, from the start:
SALL2 (spalt like transcription factor 2) [SID363996313] → mean correlation with KSR1 profile = -0.37
ZFP36 (ZFP36 zinc finger CCCH-type) [SID363994515] → mean correlation with KSR1 profile = -0.367
MDN1 (midasin AAA ATPase 1) [SID363998981] → mean correlation with KSR1 profile = -0.214
GLI3 (GLI family zinc finger 3) [SID363991504] → mean correlation with KSR1 profile = 0.382
CUL4A (cullin 4A) [SID363994669] → mean correlation with KSR1 profile = 0.138
IHH (Indian hedgehog signaling molecule) [SID364005229] → mean correlation with KSR1 profile = 0.34
SAE1 (SUMO1 activating enzyme subunit 1) [SID363996402] → mean correlation with KSR1 profile = -0.581
GUCY1A1 (guanylate cyclase 1 soluble subunit alpha 1) [SID363992143] → mean correlation with KSR1 profile = 0.36
TOR2A (torsin family 2 member A) [SID364004511] → mean correlation with KSR1 profile = -0.207
NIM1K (NIM1 serine/threonine protein kinase) [SID364004770] → mean correlation with KSR1 profile = 0.881
AGPAT5 (1-acylglycerol-3-phosphate O-acyltransferase 5) [SID364001005] → mean correlation with KSR1 profile = 0.00968
STIL (STIL centriolar assembly protein) [SID363994184] → mean correlation with KSR1 profile = -0.225
FAT4 (FAT atypical cadherin 4) [SID364002888] → mean correlation with KSR1 profile = 0.65
NAXD (NAD(P)HX dehydratase) [SID364000880] → mean correlation with KSR1 profile = 0.259
MAFB (MAF bZIP transcription factor B) [SID363996366] → mean correlation with KSR1 profile = 0.758
UXT (ubiquitously expressed prefoldin like chaperone) [SID363995186] → mean correlation with KSR1 profile = 0.0698
MAL (mal, T cell differentiation protein (MAL blood group)) [SID363993551] → mean correlation with KSR1 profile = 0.0318
DICER1 (dicer 1, ribonuclease III) [SID364003376] → mean correlation with KSR1 profile = -0.275
PANX1 (pannexin 1) [SID363999446] → mean correlation with KSR1 profile = -0.475
ZDHHC12 (zDHHC palmitoyltransferase 12) [SID364004179] → mean correlation with KSR1 profile = 0.535
VBP1 (VHL binding protein 1) [SID363994484] → mean correlation with KSR1 profile = 0.756
RASD1 (ras related dexamethasone induced 1) [SID363999857] → mean correlation with KSR1 profile = 0.704
AKR1C2 (aldo-keto reductase family 1 member C2) [SID363992631] → mean correlation with KSR1 profile = -0.613
FAU (FAU ubiquitin like and ribosomal protein S30 fusion) [SID363993209] → mean correlation with KSR1 profile = -0.0404
SCP2 [SID363994130] → mean correlation with KSR1 profile = 0.625
RNF20 (ring finger protein 20) [SID364001424] → mean correlation with KSR1 profile = -0.629
MAN1A1 (mannosidase alpha class 1A member 1) [SID363996776] → mean correlation with KSR1 profile = 0.0883
APOBEC3G (apolipoprotein B mRNA editing enzyme catalytic subunit 3G) [SID364002202] → mean correlation with KSR1 profile = 0.182
